Results are given in words; binding and its absence hold for the method and conditions named. Binding seen in cells or lysates may run through a third protein. Some results given as binding are weak or reduced against the parent protein; the word gives no strength. One block for each molecule: values may come before it.
Assays:
[1] = target: endogenous Vps15 (mouse) (mouse (endogenous in MEFs and liver)) (UniProt Q8VD65); assay: co-IP; Vps15 immunoprecipitated from the soluble nuclear fraction of liver tissue of WT male mice (ZT6; other ZT times in Extended Data Fig. 6e); endogenous proteins
[2] = target: endogenous Vps15 (mouse) (mouse (endogenous in MEFs and liver)) (UniProt Q8VD65); assay: co-IP; Vps15 immunoprecipitated from the soluble nuclear (and cytosol) fractions of MEF cells; endogenous proteins
VPS34–Flag = VPS34–Flag (UniProt Q8NEB9); assay: co-IP; anti-Flag immunoprecipitation of ectopically expressed Flag-tagged VPS15 (WT, Mut1, Mut2) or VPS34 from HEK293T cell extracts (1% NP-40 lysis buffer, Protein G Sepharose, four washes); blot for endogenous partners
[3] = target: endogenous Bmal1 (mouse) (mouse (endogenous in MEFs and liver)) (UniProt Q9WTL8); assay: co-IP; Bmal1 immunoprecipitated from total extracts of control and Vps15-depleted MEFs; blot for endogenous Clock
[4] = target: endogenous Bmal1 (mouse) (mouse (endogenous in MEFs and liver)) (UniProt Q9WTL8); assay: co-IP; Bmal1 immunoprecipitated from the soluble nuclear fraction of livers of WT and Vps15LKO mice (ZT0, ZT12); blot for Clock; beads alone as control
[5] = target: endogenous BMAL1 (human (endogenous in HEK293T)) (UniProt O00327); assay: co-IP; BMAL1 immunoprecipitated from total extracts of HEK293T cells transfected with increasing amounts of VPS15WT; blot for CLOCK and VPS15
[6] = target: Bmal1-His full-length (Fl) protein (mouse) (UniProt Q9WTL8); assay: co-IP; Bmal1 immunoprecipitates from total extracts of HEK293T cells expressing His-tagged mouse Bmal1 truncated constructs; blot for CLOCK and VPS15

The chains behind the UniProt entries cited, without tags or fusion partners.
UniProt Q8VD65: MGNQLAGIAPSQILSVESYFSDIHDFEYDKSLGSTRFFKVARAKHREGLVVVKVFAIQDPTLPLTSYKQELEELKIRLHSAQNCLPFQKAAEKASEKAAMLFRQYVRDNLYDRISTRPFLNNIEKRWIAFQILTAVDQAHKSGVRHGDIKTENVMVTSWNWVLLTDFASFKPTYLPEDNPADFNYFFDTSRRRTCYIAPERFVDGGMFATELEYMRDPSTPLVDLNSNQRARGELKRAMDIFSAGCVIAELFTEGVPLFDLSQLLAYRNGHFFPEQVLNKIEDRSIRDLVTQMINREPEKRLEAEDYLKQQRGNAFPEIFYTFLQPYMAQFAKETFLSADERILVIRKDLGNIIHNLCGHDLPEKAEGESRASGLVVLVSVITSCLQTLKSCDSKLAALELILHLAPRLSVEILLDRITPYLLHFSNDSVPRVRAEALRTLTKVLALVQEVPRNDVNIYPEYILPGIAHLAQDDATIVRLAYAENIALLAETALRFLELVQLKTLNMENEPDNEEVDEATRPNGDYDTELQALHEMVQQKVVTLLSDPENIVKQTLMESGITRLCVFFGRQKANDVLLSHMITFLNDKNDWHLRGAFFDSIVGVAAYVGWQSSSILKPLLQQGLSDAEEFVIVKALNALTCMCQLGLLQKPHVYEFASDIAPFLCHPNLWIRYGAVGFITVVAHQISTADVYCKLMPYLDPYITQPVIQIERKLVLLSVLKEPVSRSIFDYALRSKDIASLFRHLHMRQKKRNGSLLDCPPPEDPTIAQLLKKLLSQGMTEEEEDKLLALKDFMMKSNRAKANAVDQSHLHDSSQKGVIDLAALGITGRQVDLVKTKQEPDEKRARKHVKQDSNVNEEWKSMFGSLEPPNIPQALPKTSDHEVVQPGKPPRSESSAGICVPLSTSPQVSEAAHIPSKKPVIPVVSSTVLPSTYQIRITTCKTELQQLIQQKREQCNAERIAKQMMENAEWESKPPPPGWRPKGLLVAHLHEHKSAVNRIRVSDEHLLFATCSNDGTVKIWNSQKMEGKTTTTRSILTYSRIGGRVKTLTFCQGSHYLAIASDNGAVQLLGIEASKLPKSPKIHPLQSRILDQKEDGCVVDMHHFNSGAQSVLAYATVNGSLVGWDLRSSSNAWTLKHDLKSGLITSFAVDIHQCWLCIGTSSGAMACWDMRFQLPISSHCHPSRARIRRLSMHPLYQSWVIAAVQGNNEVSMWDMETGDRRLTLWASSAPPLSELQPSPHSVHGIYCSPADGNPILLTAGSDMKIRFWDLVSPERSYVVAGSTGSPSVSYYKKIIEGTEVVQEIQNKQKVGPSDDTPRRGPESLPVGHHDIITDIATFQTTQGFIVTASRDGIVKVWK
UniProt Q8NEB9: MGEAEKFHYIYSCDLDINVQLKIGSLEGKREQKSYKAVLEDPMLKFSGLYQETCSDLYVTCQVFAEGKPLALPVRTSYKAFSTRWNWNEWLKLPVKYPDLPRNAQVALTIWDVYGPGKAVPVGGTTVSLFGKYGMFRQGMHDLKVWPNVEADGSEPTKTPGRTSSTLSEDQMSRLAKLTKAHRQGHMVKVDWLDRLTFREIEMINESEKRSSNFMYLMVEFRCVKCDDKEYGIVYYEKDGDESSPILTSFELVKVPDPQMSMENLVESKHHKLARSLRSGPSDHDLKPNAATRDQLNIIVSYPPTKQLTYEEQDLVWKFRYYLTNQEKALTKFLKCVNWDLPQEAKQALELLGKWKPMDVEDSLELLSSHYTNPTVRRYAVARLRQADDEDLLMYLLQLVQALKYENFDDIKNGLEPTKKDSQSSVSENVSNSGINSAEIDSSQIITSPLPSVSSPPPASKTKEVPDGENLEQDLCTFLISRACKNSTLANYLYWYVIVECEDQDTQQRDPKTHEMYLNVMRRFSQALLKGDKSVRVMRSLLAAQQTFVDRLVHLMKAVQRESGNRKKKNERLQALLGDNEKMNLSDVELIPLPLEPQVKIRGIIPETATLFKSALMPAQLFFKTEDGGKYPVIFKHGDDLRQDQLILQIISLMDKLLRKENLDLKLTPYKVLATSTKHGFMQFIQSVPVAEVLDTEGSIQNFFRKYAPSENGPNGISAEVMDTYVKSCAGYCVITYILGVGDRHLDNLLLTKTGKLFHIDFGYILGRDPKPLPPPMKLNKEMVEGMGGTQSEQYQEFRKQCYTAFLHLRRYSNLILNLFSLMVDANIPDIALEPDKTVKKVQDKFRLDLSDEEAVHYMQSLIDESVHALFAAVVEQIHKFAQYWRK
UniProt Q9WTL8: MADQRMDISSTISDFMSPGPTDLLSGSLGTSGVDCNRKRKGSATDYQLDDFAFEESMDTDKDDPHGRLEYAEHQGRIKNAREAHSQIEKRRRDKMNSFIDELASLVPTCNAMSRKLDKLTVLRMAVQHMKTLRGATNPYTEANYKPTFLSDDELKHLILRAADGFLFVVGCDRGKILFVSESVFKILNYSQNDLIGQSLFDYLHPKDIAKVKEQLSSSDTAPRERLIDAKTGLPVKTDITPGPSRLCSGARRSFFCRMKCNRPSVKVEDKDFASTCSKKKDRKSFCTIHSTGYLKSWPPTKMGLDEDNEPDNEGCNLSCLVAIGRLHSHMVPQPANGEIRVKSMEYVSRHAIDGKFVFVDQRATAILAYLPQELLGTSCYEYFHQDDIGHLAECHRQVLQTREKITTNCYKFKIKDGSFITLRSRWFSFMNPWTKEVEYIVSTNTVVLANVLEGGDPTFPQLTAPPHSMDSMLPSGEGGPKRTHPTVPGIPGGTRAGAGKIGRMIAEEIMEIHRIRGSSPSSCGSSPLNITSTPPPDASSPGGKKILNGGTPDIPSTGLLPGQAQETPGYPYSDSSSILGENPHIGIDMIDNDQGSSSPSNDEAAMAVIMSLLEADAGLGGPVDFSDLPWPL
UniProt O00327: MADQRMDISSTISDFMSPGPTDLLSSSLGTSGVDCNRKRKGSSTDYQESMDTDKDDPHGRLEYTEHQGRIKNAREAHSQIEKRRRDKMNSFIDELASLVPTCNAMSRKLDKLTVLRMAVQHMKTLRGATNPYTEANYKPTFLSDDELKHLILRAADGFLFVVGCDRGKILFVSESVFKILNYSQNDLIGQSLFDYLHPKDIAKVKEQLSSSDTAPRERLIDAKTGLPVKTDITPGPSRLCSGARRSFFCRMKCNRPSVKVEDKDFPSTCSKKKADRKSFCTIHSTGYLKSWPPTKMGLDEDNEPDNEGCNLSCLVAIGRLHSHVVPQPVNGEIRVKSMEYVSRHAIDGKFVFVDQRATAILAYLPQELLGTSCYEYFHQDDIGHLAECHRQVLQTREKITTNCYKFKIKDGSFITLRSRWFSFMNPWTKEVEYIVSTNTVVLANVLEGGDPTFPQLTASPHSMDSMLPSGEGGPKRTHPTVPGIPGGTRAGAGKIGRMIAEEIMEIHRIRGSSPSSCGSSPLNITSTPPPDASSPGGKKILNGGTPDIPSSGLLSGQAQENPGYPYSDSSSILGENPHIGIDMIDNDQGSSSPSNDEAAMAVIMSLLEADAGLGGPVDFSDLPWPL
UniProt Q6PF93: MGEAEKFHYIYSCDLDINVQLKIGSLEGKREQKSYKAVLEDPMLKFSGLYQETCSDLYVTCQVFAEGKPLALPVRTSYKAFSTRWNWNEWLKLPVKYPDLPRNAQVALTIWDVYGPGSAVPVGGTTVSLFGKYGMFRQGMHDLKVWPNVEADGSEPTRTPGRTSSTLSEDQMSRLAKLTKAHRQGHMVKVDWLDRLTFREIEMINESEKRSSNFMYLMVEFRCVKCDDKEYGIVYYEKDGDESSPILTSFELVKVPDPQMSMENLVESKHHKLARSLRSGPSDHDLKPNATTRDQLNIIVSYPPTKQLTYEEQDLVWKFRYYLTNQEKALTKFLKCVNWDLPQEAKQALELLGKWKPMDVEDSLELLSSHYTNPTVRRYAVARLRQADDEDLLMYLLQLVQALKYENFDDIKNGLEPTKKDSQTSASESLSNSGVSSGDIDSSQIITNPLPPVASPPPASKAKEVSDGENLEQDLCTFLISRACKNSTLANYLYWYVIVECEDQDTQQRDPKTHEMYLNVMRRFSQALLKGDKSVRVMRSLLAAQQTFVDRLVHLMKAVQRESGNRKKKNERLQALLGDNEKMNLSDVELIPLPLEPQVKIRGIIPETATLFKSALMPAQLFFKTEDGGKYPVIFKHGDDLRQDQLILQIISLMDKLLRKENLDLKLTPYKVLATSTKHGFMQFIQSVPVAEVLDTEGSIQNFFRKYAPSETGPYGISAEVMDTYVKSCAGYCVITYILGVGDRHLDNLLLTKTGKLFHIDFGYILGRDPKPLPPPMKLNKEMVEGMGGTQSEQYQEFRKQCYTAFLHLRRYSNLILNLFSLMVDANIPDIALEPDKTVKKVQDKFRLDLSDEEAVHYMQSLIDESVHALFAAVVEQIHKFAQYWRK
UniProt P52294: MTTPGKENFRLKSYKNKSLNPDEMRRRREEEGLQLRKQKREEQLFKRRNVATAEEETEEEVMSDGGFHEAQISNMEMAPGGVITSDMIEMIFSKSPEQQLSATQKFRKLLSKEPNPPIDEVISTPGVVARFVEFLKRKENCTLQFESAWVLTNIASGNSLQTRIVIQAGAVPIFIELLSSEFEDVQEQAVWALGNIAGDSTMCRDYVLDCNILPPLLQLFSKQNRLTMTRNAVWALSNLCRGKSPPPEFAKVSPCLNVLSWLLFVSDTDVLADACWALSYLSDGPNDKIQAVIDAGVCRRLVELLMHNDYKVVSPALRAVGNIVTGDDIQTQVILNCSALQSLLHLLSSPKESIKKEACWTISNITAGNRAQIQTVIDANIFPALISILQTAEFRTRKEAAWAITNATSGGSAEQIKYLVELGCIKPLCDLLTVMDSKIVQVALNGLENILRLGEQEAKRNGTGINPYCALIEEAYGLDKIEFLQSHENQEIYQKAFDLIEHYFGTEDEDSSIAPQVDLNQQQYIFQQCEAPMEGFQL

Molecule: endogenous Bmal1 (mouse) (from UniProt Q9WTL8 1-632)
binding [1]: binds | binding [2]: binds

Molecule: endogenous Vps34 (mouse) (from UniProt Q6PF93 1-887)
binding [1]: binds | binding [2]: binds

B1: endogenous Clock (mouse) (protein, UniProt O08785 1-855)
chain: MVFTVSCSKMSSIVDRDDSSIFDGLVEEDDKDKAKRVSRNKSEKKRRDQFNVLIKELGSMLPGNARKMDKSTVLQKSIDFLRKHKETTAQSDASEIRQDWKPTFLSNEEFTQLMLEALDGFFLAIMTDGSIIYVSESVTSLLEHLPSDLVDQSIFNFIPEGEHSEVYKILSTHLLESDSLTPEYLKSKNQLEFCCHMLRGTIDPKEPSTYEYVRFIGNFKSLTSVSTSTHNGFEGTIQRTHRPSYEDRVCFVATVRLATPQFIKEMCTVEEPNEEFTSRHSLEWKFLFLDHRAPPIIGYLPFEVLGTSGYDYYHVDDLENLAKCHEHLMQYGKGKSCYYRFLTKGQQWIWLQTHYYITYHQWNSRPEFIVCTHTVVSYAEVRAERRRELGIEESLPETAADKSQDSGSDNRINTVSLKEALERFDHSPTPSASSRSSRKSSHTAVSDPSSTPTKIPTDTSTPPRQHLPAHEKMTQRRSSFSSQSINSQSVGPSLTQPAMSQAANLPIPQGMSQFQFSAQLGAMQHLKDQLEQRTRMIEANIHRQQEELRKIQEQLQMVHGQGLQMFLQQSNPGLNFGSVQLSSGNSNIQQLTPVNMQGQVVPANQVQSGHISTGQHMIQQQTLQSTSTQQSQQSVMSGHSQQTSLPSQTPSTLTAPLYNTMVISQPAAGSMVQIPSSMPQNSTQSATVTTFTQDRQIRFSQGQQLVTKLVTAPVACGAVMVPSTMLMGQVVTAYPTFATQQQQAQTLSVTQQQQQQQQQPPQQQQQQQQSSQEQQLPSVQQPAQAQLGQPPQQFLQTSRLLHGNPSTQLILSAAFPLQQSTFPPSHHQQHQPQQQQQLPRHRTDSLTDPSKVQPQ
binding [3]: binds | binding [4]: binds

B2: CLOCK (protein, UniProt O15516 1-846)
chain: MLFTVSCSKMSSIVDRDDSSIFDGLVEEDDKDKAKRVSRNKSEKKRRDQFNVLIKELGSMLPGNARKMDKSTVLQKSIDFLRKHKEITAQSDASEIRQDWKPTFLSNEEFTQLMLEALDGFFLAIMTDGSIIYVSESVTSLLEHLPSDLVDQSIFNFIPEGEHSEVYKILSTHLLESDSLTPEYLKSKNQLEFCCHMLRGTIDPKEPSTYEYVKFIGNFKSLNSVSSSAHNGFEGTIQRTHRPSYEDRVCFVATVRLATPQFIKEMCTVEEPNEEFTSRHSLEWKFLFLDHRAPPIIGYLPFEVLGTSGYDYYHVDDLENLAKCHEHLMQYGKGKSCYYRFLTKGQQWIWLQTHYYITYHQWNSRPEFIVCTHTVVSYAEVRAERRRELGIEESLPETAADKSQDSGSDNRINTVSLKEALERFDHSPTPSASSRSSRKSSHTAVSDPSSTPTKIPTDTSTPPRQHLPAHEKMVQRRSSFSSQSINSQSVGSSLTQPVMSQATNLPIPQGMSQFQFSAQLGAMQHLKDQLEQRTRMIEANIHRQQEELRKIQEQLQMVHGQGLQMFLQQSNPGLNFGSVQLSSGNSSNIQQLAPINMQGQVVPTNQIQSGMNTGHIGTTQHMIQQQTLQSTSTQSQQNVLSGHSQQTSLPSQTQSTLTAPLYNTMVISQPAAGSMVQIPSSMPQNSTQSAAVTTFTQDRQIRFSQGQQLVTKLVTAPVACGAVMVPSTMLMGQVVTAYPTFATQQQQSQTLSVTQQQQQQSSQEQQLTSVQQPSQAQLTQPPQQFLQTSRLLHGNPSTQLILSAAFPLQQSTFPQSHHQQHQSQQQQQLSRHRTDSLPDPSKVQPQ
binding [5]: binds

Now from value to molecule:

binding (VPS34–Flag): binds
Molecule: endogenous importin α (IPOA5) (from UniProt P52294 1-538)

binding [6]: binds
B3: CLOCK (in Bmal1 immunoprecipitates of Fig. 4i) (protein, UniProt O15516 1-846)
chain: B2 chain

Source: PMC10344785
